B1: YWHAG (14-3-3γ) (protein, UniProt P61981 1-247)
chain: MVDREQLVQKARLAEQAERYDDMAAAMKNVTELNEPLSNEERNLLSVAYKNVVGARRSSWRVISSIEQKTSADGNEKKIEMVRAYREKIEKELEAVCQDVLSLLDNYLIKNCSETQYESKVFYLKMKGDYYRYLAEVATGEKRATVVESSEKAYSEAHEISKEHMQPTHPIRLGLALNYSVFYYEIQNAPEQACHLAKTAFDDAIAELDTLNEDSYKDSTLIMQLLRDNLTLWTSDQQDDDGGEGNN
B2: MICAL1, in SH-SY5Y-derived neurons (protein, UniProt Q8TDZ2 1-1067)
chain: MASPTSTNPAHAHFESFLQAQLCQDVLSSFQELCGALGLEPGGGLPQYHKIKDQLNYWSAKSLWTKLDKRAGQPVYQQGRACTSTKCLVVGAGPCGLRVAVELALLGARVVLVEKRTKFSRHNVLHLWPFTIHDLRALGAKKFYGRFCTGTLDHISIRQLQLLLLKVALLLGVEIHWGVTFTGLQPPPRKGSGWRAQLQPNPPAQLANYEFDVLISAAGGKFVPEGFKVREMRGKLAIGITANFVNGRTVEETQVPEISGVARIYNQSFFQSLLKATGIDLENIVYYKDDTHYFVMTAKKQCLLRLGVLRQDWPDTNRLLGSANVVPEALQRFTRAAADFATHGKLGKLEFAQDAHGQPDVSAFDFTSMMRAESSARVQEKHGARLLLGLVGDCLVEPFWPLGTGVARGFLAAFDAAWMVKRWAEGAESLEVLAERESLYQLLSQTSPENMHRNVAQYGLDPATRYPNLNLRAVTPNQVRDLYDVLAKEPVQRNNDKTDTGMPATGSAGTQEELLRWCQEQTAGYPGVHVSDLSSSWADGLALCALVYRLQPGLLEPSELQGLGALEATAWALKVAENELGITPVVSAQAVVAGSDPLGLIAYLSHFHSAFKSMAHSPGPVSQASPGTSSAVLFLSKLQRTLQRSRAKENAEDAGGKKLRLEMEAETPSTEVPPDPEPGVPLTPPSQHQEAGAGDLCALCGEHLYVLERLCVNGHFFHRSCFRCHTCEATLWPGGYEQHPGDGHFYCLQHLPQTDHKAEGSDRGPESPELPTPSENSMPPGLSTPTASQEGAGPVPDPSQPTRRQIRLSSPERQRLSSLNLTPDPEMEPPPKPPRSCSALARHALESSFVGWGLPVQSPQALVAMEKEEKESPFSSEEEEEDVPLDSDVEQALQTFAKTSGTMNNYPTWRRTLLRRAKEEEMKRFCKAQTIQRRLNEIEAALRELEAEGVKLELALRRQSSSPEQQKKLWVGQLLQLVDKKNSLVAEEAELMITVQELNLEEKQWQLDQELRGYMNREENLKTAADRQAEDQVLRKLVDLVNQRDALIRFQEERRLSELALGTGAQG
B3: YWHAH (14-3-3 η), in SH-SY5Y-derived neurons (protein, UniProt Q04917 1-246)
chain: MGDREQLLQRARLAEQAERYDDMASAMKAVTELNEPLSNEDRNLLSVAYKNVVGARRSSWRVISSIEQKTMADGNEKKLEKVKAYREKIEKELETVCNDVLSLLDKFLIKNCNDFQYESKVFYLKMKGDYYRYLAEVASGEKKNSVVEASEAAYKEAFEISKEQMQPTHPIRLGLALNFSVFYYEIQNAPEQACLLAKQAFDDAIAELDTLNEDSYKDSTLIMQLLRDNLTLWTSDQQDEEAGEGN
B4: YWHAG (14-3-3γ), in SH-SY5Y-derived neurons (protein, UniProt P61981 1-247)
chain: B1 chain
B5: YWHAQ (14-3-3τ), in SH-SY5Y-derived neurons (protein, UniProt P27348 1-245)
chain: MEKTELIQKAKLAEQAERYDDMATCMKAVTEQGAELSNEERNLLSVAYKNVVGGRRSAWRVISSIEQKTDTSDKKLQLIKDYREKVESELRSICTTVLELLDKYLIANATNPESKVFYLKMKGDYFRYLAEVACGDDRKQTIDNSQGAYQEAFDISKKEMQPTHPIRLGLALNFSVFYYEILNNPELACTLAKTAFDEAIAELDTLNEDSYKDSTLIMQLLRDNLTLWTSDSAGEECDAAEGAEN

Protein sequences, listed by entry. Tags and fused reporters are not part of them. Lines headed by an entry give the natural chain unless they say otherwise; changes in a name come on top. Chains listed by the source or under a name are the forms on record and can include a tag or linker. Residues count along the entry.
UniProt P20700: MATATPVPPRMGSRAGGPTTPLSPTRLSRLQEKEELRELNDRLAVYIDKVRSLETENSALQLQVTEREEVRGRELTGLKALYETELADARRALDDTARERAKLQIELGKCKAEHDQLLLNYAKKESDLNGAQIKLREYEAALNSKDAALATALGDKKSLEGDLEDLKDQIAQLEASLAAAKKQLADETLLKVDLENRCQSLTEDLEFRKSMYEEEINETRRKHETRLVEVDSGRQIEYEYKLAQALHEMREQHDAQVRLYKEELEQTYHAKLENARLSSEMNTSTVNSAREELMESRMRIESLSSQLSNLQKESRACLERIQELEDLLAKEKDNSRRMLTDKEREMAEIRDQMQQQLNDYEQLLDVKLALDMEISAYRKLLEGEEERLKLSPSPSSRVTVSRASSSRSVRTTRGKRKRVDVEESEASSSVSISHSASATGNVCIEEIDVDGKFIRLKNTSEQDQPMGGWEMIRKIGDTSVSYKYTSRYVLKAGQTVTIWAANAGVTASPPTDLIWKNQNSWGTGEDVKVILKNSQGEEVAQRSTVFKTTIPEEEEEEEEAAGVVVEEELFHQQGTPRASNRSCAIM
N-terminal GFP-tagged truncated Lamin B1 lacking the NLS (LMNB1_N409), in SH-SY5Y-derived neurons: residues 1-409 of P20700
UniProt P31946: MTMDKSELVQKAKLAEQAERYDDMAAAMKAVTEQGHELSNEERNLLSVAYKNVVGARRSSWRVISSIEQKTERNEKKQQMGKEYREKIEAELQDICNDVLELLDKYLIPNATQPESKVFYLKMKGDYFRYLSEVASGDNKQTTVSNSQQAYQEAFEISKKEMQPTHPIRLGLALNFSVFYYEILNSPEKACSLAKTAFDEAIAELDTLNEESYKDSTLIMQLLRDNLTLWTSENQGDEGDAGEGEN
UniProt P63104: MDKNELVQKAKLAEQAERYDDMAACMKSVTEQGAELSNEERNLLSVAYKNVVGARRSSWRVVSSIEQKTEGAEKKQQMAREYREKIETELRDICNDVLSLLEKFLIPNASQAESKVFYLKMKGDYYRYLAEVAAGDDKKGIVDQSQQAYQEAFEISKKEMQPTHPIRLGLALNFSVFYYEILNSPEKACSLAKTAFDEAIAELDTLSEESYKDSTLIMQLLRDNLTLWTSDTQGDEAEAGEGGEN
UniProt P62258: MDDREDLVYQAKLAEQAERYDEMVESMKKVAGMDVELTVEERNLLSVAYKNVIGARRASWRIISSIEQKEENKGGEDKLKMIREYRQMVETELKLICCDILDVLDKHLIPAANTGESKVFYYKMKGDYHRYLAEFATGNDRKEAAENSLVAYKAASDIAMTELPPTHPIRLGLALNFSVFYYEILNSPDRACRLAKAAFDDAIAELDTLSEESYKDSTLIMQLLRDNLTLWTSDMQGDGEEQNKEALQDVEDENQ

No constants are given. Whether binding was seen depends on the method and setting. In cells and extracts the contact can be indirect. Here binding means that the protein was enriched with, or labelled near, the bait; the list need not be complete. For some assays here: A no says only that the protein was not detected with the bait.

One assay deals with N-terminal GFP-tagged truncated Lamin B1 lacking the NLS (LMNB1_N409) (human) (UniProt P20700). The assay can be described thus: affinity purification with mass spectrometry.
Turning to “KPNA6 (karyopherin subunit alpha 6, Importin-α family) (from UniProt O60684 1-536)”, the binding entry is “binds”.
Still for that read-out and setting: with “YWHAB (14-3-3β) (from UniProt P31946 1-246)” the entry was “binds”.
Same read-out and setting: with “YWHAZ (14-3-3ζ) (from UniProt P63104 1-245)” the entry was “binds”; with B1, “binds”.

In the next assay the target is N-terminal GFP-tagged full length Lamin B1 (LMNB1_FL), in SH-SY5Y-derived neurons (human) (UniProt P20700). Kind of assay: affinity purification with mass spectrometry.
B2: the binding result is reported as “no binding”.
Still for that read-out and setting: with B3 the entry was “no binding”.

Another assay deals with N-terminal GFP-tagged full length Lamin B1 (LMNB1_FL) (human) (UniProt P20700). Kind of assay: affinity purification with mass spectrometry.
Take “KPNA6 (karyopherin subunit alpha 6, Importin-α family) (from UniProt O60684 1-536)”: the binding entry is listed as “binds”.

For a further assay, the target named is N-terminal GFP-tagged truncated Lamin B1 lacking the NLS (LMNB1_N409), in SH-SY5Y-derived neurons (human) (UniProt P20700). Kind of assay: affinity purification with mass spectrometry.
In the case of “YWHAB (14-3-3β), in SH-SY5Y-derived neurons (from UniProt P31946 1-246)”, the binding entry is listed as “binds”.
Regarding “YWHAE (14-3-3ε), in SH-SY5Y-derived neurons (from UniProt P62258 1-255)”, the binding entry is on record as “binds”.
Still for that read-out and setting: with “YWHAZ (14-3-3ζ), in SH-SY5Y-derived neurons (from UniProt P63104 1-245)” the entry was “binds”.
On to B2, for which the binding result is “binds”.
B3: the binding result is reported as “binds”.
Consider B4, for which the binding entry is reported as “binds”.
Turning to B5, the binding result is “binds”.

Values taken from article doi:10.1101/2025.07.09.662391.
